Source: paper PMC11358264
No constants are given. Whether binding was seen depends on the method and setting. In cells and extracts the contact can be indirect. Some entries that bind do so weakly or less than the wild type. Values belong to the molecule of their own block, whether it stands above or below them.

The chains behind the UniProt entries cited, without tags or fusion partners.
UniProt Q9NZI8: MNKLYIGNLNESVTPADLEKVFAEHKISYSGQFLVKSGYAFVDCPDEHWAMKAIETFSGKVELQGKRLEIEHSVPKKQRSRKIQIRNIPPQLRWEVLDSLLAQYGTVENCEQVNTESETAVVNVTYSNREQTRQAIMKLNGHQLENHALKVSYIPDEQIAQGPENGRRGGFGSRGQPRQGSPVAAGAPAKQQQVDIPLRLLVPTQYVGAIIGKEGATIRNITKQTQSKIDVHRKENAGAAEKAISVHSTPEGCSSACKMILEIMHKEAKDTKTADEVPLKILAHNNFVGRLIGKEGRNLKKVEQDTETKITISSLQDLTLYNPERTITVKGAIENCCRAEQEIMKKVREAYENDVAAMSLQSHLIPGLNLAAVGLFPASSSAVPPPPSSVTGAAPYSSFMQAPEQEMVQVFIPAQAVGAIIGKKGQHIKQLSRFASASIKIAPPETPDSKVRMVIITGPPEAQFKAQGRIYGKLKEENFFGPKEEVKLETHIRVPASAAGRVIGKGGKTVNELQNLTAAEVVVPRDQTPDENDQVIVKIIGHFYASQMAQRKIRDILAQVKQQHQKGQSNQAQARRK
UniProt Q9Y6M1: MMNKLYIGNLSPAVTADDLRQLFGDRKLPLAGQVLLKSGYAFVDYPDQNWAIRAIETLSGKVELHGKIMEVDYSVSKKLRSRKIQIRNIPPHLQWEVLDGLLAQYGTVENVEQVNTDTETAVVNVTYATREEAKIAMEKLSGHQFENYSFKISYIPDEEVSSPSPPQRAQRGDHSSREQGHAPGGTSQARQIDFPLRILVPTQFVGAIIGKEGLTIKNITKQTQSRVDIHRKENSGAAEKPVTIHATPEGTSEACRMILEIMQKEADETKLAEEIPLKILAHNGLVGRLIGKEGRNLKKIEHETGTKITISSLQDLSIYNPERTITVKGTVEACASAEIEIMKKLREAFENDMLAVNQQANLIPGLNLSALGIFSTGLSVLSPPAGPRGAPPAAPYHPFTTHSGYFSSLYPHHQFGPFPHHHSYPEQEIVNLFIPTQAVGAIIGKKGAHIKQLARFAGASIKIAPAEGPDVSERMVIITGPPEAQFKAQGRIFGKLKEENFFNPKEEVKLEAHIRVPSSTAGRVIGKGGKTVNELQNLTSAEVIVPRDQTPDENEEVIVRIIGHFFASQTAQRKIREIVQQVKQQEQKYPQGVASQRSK
UniProt O00425: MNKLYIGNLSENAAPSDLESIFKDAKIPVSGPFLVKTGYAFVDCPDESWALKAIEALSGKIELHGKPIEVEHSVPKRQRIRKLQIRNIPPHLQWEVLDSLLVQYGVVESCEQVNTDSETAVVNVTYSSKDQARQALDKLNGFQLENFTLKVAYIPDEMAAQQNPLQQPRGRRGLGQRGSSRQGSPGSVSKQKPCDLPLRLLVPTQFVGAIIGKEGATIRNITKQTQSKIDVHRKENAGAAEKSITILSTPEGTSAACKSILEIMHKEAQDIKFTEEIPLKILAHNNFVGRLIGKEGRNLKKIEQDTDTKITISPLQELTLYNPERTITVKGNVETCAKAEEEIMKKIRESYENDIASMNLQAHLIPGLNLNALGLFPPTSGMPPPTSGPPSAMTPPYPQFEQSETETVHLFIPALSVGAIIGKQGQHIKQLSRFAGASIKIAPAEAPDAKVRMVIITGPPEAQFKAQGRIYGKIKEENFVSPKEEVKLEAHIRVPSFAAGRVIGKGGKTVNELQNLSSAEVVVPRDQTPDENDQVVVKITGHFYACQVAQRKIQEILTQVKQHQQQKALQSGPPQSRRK
UniProt Q13868: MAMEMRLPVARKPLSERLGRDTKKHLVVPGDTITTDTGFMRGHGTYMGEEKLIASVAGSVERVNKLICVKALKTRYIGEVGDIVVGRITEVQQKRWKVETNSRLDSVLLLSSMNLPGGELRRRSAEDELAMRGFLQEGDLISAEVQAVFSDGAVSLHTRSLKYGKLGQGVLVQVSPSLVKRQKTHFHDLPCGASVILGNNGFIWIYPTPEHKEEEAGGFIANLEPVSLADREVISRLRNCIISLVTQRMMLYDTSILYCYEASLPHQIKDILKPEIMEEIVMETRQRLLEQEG
UniProt Q9NQT5: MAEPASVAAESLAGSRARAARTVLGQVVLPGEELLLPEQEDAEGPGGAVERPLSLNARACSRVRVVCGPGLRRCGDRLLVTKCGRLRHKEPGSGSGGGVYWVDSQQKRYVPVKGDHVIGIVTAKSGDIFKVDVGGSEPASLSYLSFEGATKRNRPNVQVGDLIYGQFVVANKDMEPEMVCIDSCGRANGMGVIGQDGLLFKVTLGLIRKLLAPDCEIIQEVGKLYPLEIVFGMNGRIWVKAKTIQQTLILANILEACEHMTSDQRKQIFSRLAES
UniProt Q15024: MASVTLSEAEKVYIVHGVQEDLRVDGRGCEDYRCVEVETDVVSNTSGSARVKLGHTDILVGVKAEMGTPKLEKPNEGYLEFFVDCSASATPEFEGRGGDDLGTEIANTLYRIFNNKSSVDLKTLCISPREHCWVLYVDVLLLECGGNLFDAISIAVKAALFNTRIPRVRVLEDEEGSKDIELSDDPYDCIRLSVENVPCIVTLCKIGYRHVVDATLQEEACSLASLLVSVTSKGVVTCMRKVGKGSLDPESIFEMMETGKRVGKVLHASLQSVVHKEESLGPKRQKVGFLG

Experiments:
Test in all cases: co-IP; HepG2 lysate (150 mM KCl, 10 mM HEPES pH 7.6, 2 mM EDTA, 0.5% NP-40, 0.5 mM DTT, RNase inhibitor) incubated with antibodies against IGF2BP1, IGF2BP2 or IGF2BP3 for 2 h at 4 °C, Protein A beads, washed four times with NT2 buffer (200 mM NaCl); western blot of the partners; rabbit IgG as negative control
[1] = target: IGF2BP1 (human (endogenous in HepG2)) (UniProt Q9NZI8)
[2] = target: IGF2BP2 (human (endogenous in HepG2)) (UniProt Q9Y6M1)
[3] = target: IGF2BP3 (human (endogenous in HepG2)) (UniProt O00425)

- binding [1]: binds
- binding [2]: binds
- binding [3]: binds
Molecule: EXOSC2 (from UniProt Q13868 1-293)

- binding [1]: binds
- binding [3]: binds
Molecule: EXOSC3 (from UniProt Q9NQT5 1-275)

- binding [1]: binds
- binding [3]: binds
Molecule: EXOSC7 (from UniProt Q15024 1-291)

- binding [1]: binds
- binding [2]: binds
- binding [3]: binds
B1: XRN2 (protein, UniProt Q9H0D6 1-950)
chain: MGVPAFFRWLSRKYPSIIVNCVEEKPKECNGVKIPVDASKPNPNDVEFDNLYLDMNGIIHPCTHPEDKPAPKNEDEMMVAIFEYIDRLFSIVRPRRLLYMAIDGVAPRAKMNQQRSRRFRASKEGMEAAVEKQRVREEILAKGGFLPPEEIKERFDSNCITPGTEFMDNLAKCLRYYIADRLNNDPGWKNLTVILSDASAPGEGEHKIMDYIRRQRAQPNHDPNTHHCLCGADADLIMLGLATHEPNFTIIREEFKPNKPKPCGLCNQFGHEVKDCEGLPREKKGKHDELADSLPCAEGEFIFLRLNVLREYLERELTMASLPFTFDVERSIDDWVFMCFFVGNDFLPHLPSLEIRENAIDRLVNIYKNVVHKTGGYLTESGYVNLQRVQMIMLAVGEVEDSIFKKRKDDEDSFRRRQKEKRKRMKRDQPAFTPSGILTPHALGSRNSPGSQVASNPRQAAYEMRMQNNSSPSISPNTSFTSDGSPSPLGGIKRKAEDSDSEPEPEDNVRLWEAGWKQRYYKNKFDVDAADEKFRRKVVQSYVEGLCWVLRYYYQGCASWKWYYPFHYAPFASDFEGIADMPSDFEKGTKPFKPLEQLMGVFPAASGNFLPPSWRKLMSDPDSSIIDFYPEDFAIDLNGKKYAWQGVALLPFVDERRLRAALEEVYPDLTPEETRRNSLGGDVLFVGKHHPLHDFILELYQTGSTEPVEVPPELCHGIQGKFSLDEEAILPDQIVCSPVPMLRDLTQNTVVSINFKDPQFAEDYIFKAVMLPGARKPAAVLKPSDWEKSSNGRQWKPQLGFNRDRRPVHLDQAAFRTLGHVMPRGSGTGIYSNAAPPPVTYQGNLYRPLLRGQAQIPKLMSNMRPQDSWRGPPPLFQQQRFDRGVGAEPLLPWNRMLQTQNAAFQPNQYQMLAGPGGYPPRRDDRGGRQGYPREGRKYPLPPPSGRYNWN
